# Laboratory results: article doi:10.1101/2020.03.19.999441
# By UniProt entry, the sequences of proteins in these tests, tags left out.
# UniProt Q03135: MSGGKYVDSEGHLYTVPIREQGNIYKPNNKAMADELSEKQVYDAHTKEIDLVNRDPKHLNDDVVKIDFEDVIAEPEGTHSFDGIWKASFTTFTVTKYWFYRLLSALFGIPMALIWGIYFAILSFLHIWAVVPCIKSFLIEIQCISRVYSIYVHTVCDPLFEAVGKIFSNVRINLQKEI
# UniProt Q99816: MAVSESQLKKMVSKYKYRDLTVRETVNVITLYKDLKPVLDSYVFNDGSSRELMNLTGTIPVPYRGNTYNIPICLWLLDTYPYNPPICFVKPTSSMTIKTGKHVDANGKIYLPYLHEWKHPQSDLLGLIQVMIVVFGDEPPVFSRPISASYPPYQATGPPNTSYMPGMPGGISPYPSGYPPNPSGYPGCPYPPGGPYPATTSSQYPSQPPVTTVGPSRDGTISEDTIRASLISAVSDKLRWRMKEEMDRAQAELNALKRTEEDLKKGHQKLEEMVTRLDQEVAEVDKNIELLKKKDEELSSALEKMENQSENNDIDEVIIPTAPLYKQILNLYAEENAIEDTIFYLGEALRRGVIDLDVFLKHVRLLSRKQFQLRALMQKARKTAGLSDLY
# These are yes or no findings as the source states them, for the method shown. In cells and extracts the contact can be indirect. Here binding means that the protein was enriched with, or labelled near, the bait; the list need not be complete. A no says only that the protein was not detected with the bait.
# B1: Synaptogyrin-2 (protein, UniProt O43760 1-224)
# chain: MESGAYGAAKAGGSFDLRRFLTQPQVVARAVCLVFALIVFSCIYGEGYSNAHESKQMYCVFNRNEDACRYGSAIGVLAFLASAFFLVVDAYFPQISNATDRKYLVIGDLLFSALWTFLWFVGFCFLTNQWAVTNPKDVLVGADSVRAAITFSFFSIFSWGVLASLAYQRYKAGVDDFIQNYVDPTPDPNTAYASYPGASVDNYQQPPFTQNAETTEGYQPPPVY
# B2: Flotillin-1 (protein, UniProt O75955 1-427)
# chain: MFFTCGPNEAMVVSGFCRSPPVMVAGGRVFVLPCIQQIQRISLNTLTLNVKSEKVYTRHGVPISVTGIAQVKIQGQNKEMLAAACQMFLGKTEAEIAHIALETLEGHQRAIMAHMTVEEIYKDRQKFSEQVFKVASSDLVNMGISVVSYTLKDIHDDQDYLHSLGKARTAQVQKDARIGEAEAKRDAGIREAKAKQEKVSAQYLSEIEMAKAQRDYELKKAAYDIEVNTRRAQADLAYQLQVAKTKQQIEEQRVQVQVVERAQQVAVQEQEIARREKELEARVRKPAEAERYKLERLAEAEKSQLIMQAEAEAASVRMRGEAEAFAIGARARAEAEQMAKKAEAFQLYQEAAQLDMLLEKLPQVAEEISGPLTSANKITLVSSGSGTMGAAKVTGEVLDILTRLPESVERLTGVSISQVNHKPLRTA
# B3: Flotillin-2 (protein, UniProt Q14254 1-428)
# chain: MGNCHTVGPNEALVVSGGCCGSDYKQYVFGGWAWAWWCISDTQRISLEIMTLQPRCEDVETAEGVALTVTGVAQVKIMTEKELLAVACEQFLGKNVQDIKNVVLQTLEGHLRSILGTLTVEQIYQDRDQFAKLVREVAAPDVGRMGIEILSFTIKDVYDKVDYLSSLGKTQTAVVQRDADIGVAEAERDAGIREAECKKEMLDVKFMADTKIADSKRAFELQKSAFSEEVNIKTAEAQLAYELQGAREQQKIRQEEIEIEVVQRKKQIAVEAQEILRTDKELIATVRRPAEAEAHRIQQIAEGEKVKQVLLAQAEAEKIRKIGEAEAAVIEAMGKAEAERMKLKAEAYQKYGDAAKMALVLEALPQIAAKIAAPLTKVDEIVVLSGDNSKVTSEVNRLLAELPASVHALTGVDLSKIPLIKKATGVQV
# Target: YFP-Cav1 (Caveolin-1 with an N-terminal YFP tag) (UniProt Q03135)
# Test: affinity purification with mass spectrometry
row,Molecule,binding
1,TSG101 (from UniProt Q99816 1-390),no binding
2,B1,binds
3,B2,no binding
4,B3,no binding
